Results: paper doi:10.1101/2023.11.28.569054
These are yes or no findings as the source states them, for the method shown. Binding seen in cells or lysates may run through a third protein. Some binding calls cover weakened binding; strength is not graded here. For part of these data: Tags and fused reporters may be left off the sequences shown.

Chains of the proteins cited; added tags and fusions are not shown. Lines headed by an entry give the natural chain unless they say otherwise; changes in a name come on top. Residues count along the entry.
UniProt Q9BVK8: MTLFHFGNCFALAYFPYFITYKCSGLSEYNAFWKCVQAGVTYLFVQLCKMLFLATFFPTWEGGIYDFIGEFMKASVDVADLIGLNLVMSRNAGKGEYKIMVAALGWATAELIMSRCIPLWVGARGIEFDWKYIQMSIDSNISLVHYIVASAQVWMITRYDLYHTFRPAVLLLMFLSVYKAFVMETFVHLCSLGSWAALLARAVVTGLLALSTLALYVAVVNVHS
UniProt Q969V3, residues 43-563: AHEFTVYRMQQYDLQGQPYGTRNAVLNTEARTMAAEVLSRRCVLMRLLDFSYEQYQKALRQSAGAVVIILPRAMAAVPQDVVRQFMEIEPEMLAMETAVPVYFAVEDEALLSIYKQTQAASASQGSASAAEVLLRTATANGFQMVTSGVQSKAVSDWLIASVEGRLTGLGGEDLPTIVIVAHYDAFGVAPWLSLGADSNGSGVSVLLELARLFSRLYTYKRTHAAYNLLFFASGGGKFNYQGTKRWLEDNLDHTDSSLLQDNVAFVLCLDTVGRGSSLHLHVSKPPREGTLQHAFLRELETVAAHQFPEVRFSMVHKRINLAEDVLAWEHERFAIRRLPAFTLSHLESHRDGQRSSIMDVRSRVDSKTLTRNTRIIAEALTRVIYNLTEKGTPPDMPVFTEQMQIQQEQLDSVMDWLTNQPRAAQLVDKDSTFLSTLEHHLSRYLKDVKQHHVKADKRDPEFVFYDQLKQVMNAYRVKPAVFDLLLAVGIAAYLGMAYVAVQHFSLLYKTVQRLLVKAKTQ
UniProt Q9UM00: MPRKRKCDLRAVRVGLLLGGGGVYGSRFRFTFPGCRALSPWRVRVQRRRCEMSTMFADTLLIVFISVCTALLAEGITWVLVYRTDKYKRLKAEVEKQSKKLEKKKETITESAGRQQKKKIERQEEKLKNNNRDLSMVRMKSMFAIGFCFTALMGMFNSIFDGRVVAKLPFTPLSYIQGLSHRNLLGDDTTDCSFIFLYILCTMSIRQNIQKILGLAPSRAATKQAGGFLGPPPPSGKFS
UniProt Q9BUV8: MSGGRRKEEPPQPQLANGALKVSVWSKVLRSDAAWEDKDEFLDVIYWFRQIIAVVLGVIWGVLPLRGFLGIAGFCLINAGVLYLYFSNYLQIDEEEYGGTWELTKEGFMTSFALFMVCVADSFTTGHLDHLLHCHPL
UniProt Q5UCC4, residues 26-262: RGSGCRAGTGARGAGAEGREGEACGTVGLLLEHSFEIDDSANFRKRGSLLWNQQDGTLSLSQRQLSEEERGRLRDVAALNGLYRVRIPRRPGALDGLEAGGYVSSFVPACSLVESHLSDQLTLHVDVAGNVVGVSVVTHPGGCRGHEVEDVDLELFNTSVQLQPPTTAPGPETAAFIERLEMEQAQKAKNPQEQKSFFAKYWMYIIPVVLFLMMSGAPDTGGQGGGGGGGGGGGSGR

Assays:
GFP-EMC2 (human) = biological target: T1, GFP-EMC2 (human) (UniProt Q15006); experiment: co-IP
T1 sequence: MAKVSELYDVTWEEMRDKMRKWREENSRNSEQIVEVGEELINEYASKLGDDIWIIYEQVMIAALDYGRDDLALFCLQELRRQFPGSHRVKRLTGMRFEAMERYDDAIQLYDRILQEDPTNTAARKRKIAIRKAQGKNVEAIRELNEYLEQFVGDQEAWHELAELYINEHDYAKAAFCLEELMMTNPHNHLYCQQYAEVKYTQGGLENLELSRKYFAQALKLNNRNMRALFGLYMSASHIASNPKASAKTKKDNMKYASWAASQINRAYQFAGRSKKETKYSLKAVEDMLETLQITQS

TMEM147-ALFA (human) = TMEM147-ALFA (human) (UniProt Q9BVK8); experiment: cross-linking
NCLN-ALFA (human) = NCLN-ALFA (human) (UniProt Q969V3); experiment: cross-linking

binding (GFP-EMC2 (human))	binding (TMEM147-ALFA (human))	binding (NCLN-ALFA (human))	Substance
binds			GET and EMC like (GEL) complex (from UniProt Q9UM00;Q9BUV8)
	binds	binds	EMC10 (from UniProt Q5UCC4 26-262)
